From publication PMC12297596 come the findings set out here.

By UniProt entry, the sequences of proteins in these tests, tags left out.
UniProt Q9UPU5: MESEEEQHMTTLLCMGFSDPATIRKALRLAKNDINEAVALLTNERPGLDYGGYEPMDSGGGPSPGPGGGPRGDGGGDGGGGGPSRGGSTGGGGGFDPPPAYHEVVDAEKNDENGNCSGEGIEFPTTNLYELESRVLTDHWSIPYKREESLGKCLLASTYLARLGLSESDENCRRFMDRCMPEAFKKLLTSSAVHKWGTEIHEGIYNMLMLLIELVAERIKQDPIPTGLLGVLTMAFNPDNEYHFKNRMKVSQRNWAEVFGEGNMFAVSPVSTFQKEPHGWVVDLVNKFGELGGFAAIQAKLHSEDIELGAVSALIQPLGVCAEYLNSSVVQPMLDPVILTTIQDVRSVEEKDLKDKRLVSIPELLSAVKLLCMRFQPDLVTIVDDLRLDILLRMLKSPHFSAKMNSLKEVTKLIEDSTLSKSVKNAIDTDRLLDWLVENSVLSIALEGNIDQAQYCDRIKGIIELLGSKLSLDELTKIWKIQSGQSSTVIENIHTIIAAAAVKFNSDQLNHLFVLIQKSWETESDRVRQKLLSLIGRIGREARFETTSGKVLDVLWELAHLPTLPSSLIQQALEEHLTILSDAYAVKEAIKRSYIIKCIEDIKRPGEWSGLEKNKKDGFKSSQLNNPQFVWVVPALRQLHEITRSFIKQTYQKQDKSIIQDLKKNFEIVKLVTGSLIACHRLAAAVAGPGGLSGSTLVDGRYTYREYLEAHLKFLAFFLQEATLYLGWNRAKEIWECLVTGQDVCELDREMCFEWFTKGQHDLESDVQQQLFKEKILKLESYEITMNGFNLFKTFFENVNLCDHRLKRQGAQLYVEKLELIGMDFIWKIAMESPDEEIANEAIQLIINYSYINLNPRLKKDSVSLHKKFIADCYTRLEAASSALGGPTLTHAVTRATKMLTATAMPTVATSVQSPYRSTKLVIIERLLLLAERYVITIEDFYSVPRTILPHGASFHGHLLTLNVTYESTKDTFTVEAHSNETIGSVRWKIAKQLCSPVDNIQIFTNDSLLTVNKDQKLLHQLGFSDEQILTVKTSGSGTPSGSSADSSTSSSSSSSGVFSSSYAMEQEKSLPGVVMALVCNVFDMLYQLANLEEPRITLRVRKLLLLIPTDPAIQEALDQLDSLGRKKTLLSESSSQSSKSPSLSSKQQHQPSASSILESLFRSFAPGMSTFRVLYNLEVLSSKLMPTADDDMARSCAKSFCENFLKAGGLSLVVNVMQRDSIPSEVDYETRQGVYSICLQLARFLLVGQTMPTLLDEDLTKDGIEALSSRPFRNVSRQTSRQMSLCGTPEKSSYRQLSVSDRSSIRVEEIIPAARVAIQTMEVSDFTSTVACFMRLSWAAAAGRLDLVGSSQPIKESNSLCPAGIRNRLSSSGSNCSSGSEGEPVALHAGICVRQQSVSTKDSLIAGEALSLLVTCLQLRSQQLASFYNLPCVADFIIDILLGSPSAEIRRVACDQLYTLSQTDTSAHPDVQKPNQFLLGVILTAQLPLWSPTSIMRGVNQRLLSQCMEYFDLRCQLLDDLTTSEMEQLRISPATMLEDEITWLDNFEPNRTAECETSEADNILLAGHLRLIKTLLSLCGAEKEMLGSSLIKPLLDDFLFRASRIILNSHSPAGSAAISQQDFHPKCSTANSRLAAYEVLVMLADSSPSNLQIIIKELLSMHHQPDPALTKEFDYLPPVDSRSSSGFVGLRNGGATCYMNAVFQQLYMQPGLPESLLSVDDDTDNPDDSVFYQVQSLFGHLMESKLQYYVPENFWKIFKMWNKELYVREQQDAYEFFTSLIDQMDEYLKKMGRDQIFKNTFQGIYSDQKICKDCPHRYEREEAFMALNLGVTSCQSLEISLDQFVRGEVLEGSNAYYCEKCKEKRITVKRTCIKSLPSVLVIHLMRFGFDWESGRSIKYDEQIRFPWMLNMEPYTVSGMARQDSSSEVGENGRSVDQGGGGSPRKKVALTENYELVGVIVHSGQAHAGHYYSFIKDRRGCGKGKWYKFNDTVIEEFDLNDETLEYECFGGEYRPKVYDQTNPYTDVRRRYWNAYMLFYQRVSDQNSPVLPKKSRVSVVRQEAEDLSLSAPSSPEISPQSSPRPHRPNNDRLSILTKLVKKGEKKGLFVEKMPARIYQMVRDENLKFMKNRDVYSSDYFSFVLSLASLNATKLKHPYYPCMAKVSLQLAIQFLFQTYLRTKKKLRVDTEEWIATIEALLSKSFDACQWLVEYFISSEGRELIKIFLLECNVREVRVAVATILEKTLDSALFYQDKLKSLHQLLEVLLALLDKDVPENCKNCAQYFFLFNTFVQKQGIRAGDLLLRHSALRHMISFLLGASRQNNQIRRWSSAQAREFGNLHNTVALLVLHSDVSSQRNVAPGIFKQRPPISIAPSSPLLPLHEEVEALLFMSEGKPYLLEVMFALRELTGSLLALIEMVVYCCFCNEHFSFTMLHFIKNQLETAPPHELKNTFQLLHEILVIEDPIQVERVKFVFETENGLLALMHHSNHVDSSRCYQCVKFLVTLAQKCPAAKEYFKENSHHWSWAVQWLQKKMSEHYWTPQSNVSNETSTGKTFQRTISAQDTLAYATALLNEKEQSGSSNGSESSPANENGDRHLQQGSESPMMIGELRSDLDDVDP
UniProt Q02127: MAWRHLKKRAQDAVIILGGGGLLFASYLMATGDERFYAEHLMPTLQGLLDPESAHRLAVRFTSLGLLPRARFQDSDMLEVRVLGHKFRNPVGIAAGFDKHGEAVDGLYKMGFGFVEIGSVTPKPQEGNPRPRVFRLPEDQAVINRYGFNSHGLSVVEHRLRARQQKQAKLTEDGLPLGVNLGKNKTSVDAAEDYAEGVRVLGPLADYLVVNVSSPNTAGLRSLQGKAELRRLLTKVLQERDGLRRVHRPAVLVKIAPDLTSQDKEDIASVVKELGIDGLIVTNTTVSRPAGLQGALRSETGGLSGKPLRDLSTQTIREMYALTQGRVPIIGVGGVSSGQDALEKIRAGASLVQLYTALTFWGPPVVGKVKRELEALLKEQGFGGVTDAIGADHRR

In test [1] the target is ubiquitin-specific peptidase 24 (USP24) (human (endogenous in MDA-MB-231 and MDA-MB-468)) (UniProt Q9UPU5). Kind of test: co-IP; endogenous proteins in lysates of MDA-MB-231 and MDA-MB-468 cells; lysates pre-cleared with Dynabeads, incubated with unrelated IgG or specific antibodies (USP24 or DHODH, 5 μg/ml) and Dynabeads overnight at 4 °C, washed with PBS, Western blot. (In general: A western blot detects proteins with antibodies after separation by electrophoresis.)

Test [2] has as its target dihydroorotate dehydrogenase (DHODH) (human (endogenous in MDA-MB-231 and MDA-MB-468)) (UniProt Q02127). The test is described as above.

These are yes or no findings as the source states them, for the method shown. In cells and extracts the contact can be indirect. Some binding calls cover weakened binding; strength is not graded here.

For the substance “dihydroorotate dehydrogenase (DHODH) (from UniProt Q02127 1-395) (enzyme)”, in test [1], the binding entry is on record as “binds”. On to “ubiquitin-specific peptidase 24 (USP24) (from UniProt Q9UPU5 1-2620) (enzyme)”, for which the binding entry in test [2] is “binds”.
